# ± gives the standard deviation of the averaged measurements. The list shows a part of the results.
# Protein sequences, listed by entry. Tags and fused reporters are not part of them. Lines headed by an entry give the natural chain unless they say otherwise; changes in a name come on top.
# UniProt O95865: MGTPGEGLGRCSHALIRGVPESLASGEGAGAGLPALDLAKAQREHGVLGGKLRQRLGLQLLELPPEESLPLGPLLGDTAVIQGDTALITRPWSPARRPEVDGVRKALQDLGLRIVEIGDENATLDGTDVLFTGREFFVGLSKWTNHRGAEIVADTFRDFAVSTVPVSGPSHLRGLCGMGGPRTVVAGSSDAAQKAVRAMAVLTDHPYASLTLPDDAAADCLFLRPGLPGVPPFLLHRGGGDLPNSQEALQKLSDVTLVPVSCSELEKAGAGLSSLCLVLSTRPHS
# UniProt O96013: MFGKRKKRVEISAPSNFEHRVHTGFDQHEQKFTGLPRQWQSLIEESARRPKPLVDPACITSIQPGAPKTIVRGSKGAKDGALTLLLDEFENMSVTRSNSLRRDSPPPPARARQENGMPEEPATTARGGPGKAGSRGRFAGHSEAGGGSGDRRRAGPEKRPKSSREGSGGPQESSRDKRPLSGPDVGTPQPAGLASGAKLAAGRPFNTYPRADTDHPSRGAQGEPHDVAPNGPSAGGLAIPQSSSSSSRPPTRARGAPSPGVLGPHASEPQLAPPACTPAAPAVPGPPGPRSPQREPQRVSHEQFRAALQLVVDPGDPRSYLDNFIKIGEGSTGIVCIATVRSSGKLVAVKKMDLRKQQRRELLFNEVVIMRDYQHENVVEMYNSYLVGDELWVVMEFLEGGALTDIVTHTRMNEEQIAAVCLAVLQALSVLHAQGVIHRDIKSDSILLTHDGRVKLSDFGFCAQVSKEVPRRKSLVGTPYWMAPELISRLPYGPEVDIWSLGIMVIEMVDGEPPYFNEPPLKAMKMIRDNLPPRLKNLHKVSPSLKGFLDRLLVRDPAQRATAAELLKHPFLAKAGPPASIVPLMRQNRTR
# UniProt O75792: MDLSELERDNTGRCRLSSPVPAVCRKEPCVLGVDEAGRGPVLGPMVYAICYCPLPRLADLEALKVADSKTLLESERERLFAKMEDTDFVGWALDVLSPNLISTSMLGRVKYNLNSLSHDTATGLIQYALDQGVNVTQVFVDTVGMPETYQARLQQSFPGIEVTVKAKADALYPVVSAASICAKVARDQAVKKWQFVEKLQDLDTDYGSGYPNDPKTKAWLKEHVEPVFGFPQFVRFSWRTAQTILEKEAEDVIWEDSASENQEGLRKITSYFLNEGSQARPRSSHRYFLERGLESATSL
# UniProt O75312: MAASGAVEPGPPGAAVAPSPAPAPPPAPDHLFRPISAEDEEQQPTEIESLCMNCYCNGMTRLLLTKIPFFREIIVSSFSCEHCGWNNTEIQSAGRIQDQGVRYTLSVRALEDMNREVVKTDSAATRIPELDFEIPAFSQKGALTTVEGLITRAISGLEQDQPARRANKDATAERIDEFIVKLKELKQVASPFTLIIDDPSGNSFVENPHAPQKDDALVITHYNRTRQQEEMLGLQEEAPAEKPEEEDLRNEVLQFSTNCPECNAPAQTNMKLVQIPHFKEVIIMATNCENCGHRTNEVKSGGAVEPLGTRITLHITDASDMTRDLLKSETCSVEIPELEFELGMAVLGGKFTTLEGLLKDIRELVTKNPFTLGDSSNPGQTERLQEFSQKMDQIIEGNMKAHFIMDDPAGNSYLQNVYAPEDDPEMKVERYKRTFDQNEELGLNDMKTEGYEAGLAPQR
# UniProt P06400: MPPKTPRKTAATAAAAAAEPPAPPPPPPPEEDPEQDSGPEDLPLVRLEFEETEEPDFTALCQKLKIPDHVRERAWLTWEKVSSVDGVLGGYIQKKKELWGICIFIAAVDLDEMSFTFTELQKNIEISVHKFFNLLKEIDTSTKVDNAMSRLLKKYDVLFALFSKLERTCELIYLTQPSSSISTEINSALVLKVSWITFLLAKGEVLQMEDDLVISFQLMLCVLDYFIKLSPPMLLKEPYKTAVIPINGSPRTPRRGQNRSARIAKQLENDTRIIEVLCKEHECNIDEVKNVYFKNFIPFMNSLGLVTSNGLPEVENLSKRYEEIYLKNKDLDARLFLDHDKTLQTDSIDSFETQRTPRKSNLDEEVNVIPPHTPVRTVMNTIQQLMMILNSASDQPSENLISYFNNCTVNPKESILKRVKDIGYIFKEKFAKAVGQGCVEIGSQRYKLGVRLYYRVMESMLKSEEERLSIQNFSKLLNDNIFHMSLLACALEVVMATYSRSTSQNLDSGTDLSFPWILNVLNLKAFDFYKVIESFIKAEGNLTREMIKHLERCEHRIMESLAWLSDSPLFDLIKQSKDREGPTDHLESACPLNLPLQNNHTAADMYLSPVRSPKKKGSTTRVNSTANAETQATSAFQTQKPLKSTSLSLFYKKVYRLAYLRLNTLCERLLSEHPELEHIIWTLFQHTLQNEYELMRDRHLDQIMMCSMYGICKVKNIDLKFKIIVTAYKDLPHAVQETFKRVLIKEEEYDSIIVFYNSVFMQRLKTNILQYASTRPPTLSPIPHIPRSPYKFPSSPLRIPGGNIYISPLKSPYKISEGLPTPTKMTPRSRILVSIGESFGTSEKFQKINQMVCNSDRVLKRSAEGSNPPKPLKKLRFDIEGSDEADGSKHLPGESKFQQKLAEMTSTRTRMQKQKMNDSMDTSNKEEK
# UniProt P06239: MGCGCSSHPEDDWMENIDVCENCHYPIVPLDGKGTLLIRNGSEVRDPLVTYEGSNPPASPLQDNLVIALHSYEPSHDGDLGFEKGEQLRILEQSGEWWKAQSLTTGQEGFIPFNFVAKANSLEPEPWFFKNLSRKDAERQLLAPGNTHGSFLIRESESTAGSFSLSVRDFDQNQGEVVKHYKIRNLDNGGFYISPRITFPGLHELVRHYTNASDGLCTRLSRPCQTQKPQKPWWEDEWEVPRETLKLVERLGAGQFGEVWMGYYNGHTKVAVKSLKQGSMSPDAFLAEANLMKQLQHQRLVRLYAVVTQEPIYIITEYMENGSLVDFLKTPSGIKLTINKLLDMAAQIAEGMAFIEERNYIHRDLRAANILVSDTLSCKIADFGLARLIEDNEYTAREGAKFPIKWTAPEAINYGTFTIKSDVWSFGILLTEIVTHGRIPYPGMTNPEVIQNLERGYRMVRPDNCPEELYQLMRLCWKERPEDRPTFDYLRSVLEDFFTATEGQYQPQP
# UniProt O95721: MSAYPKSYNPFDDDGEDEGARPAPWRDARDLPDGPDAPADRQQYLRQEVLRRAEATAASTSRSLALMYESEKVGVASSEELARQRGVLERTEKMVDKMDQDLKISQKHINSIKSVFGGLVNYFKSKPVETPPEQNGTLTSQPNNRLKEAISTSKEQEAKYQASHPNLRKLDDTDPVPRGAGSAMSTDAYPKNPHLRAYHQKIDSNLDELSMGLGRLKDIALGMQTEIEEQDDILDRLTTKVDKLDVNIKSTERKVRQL
# UniProt P01737: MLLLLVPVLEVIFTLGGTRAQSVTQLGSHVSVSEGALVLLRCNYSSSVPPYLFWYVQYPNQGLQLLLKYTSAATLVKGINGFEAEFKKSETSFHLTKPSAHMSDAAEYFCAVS
# UniProt O95831, whole entry: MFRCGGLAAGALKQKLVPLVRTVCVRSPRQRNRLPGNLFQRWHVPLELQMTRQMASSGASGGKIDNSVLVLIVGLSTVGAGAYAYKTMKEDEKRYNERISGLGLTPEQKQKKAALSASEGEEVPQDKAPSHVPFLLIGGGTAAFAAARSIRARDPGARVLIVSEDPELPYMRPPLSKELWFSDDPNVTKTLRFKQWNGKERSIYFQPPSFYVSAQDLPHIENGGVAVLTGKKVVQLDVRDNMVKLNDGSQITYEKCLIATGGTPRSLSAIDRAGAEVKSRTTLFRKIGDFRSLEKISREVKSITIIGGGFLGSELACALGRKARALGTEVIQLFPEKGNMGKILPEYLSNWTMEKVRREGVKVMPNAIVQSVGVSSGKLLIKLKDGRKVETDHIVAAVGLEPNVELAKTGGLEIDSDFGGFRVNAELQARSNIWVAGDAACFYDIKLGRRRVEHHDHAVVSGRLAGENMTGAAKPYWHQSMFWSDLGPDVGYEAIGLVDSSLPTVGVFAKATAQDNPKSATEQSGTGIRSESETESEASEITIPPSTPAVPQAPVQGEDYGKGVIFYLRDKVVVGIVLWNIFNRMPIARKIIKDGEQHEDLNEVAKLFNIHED
# UniProt O75884: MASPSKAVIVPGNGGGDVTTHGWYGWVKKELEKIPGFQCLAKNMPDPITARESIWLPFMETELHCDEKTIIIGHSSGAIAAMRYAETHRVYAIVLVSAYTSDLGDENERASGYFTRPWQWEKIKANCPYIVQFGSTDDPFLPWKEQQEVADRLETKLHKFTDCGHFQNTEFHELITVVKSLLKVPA
# UniProt O75787, whole entry: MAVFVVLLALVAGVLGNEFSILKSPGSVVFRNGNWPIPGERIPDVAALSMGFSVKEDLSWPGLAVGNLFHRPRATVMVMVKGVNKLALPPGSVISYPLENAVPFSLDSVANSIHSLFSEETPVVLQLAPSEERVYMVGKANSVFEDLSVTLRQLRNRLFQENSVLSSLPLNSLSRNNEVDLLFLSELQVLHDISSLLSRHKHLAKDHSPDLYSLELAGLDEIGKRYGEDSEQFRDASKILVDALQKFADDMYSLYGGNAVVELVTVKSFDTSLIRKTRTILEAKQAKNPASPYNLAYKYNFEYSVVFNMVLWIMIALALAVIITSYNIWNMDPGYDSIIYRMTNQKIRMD
# UniProt P04921: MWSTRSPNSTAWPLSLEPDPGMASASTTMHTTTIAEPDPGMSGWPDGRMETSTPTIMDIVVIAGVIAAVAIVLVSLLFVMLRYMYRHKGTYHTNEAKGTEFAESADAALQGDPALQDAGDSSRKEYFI
# UniProt O95347, whole entry: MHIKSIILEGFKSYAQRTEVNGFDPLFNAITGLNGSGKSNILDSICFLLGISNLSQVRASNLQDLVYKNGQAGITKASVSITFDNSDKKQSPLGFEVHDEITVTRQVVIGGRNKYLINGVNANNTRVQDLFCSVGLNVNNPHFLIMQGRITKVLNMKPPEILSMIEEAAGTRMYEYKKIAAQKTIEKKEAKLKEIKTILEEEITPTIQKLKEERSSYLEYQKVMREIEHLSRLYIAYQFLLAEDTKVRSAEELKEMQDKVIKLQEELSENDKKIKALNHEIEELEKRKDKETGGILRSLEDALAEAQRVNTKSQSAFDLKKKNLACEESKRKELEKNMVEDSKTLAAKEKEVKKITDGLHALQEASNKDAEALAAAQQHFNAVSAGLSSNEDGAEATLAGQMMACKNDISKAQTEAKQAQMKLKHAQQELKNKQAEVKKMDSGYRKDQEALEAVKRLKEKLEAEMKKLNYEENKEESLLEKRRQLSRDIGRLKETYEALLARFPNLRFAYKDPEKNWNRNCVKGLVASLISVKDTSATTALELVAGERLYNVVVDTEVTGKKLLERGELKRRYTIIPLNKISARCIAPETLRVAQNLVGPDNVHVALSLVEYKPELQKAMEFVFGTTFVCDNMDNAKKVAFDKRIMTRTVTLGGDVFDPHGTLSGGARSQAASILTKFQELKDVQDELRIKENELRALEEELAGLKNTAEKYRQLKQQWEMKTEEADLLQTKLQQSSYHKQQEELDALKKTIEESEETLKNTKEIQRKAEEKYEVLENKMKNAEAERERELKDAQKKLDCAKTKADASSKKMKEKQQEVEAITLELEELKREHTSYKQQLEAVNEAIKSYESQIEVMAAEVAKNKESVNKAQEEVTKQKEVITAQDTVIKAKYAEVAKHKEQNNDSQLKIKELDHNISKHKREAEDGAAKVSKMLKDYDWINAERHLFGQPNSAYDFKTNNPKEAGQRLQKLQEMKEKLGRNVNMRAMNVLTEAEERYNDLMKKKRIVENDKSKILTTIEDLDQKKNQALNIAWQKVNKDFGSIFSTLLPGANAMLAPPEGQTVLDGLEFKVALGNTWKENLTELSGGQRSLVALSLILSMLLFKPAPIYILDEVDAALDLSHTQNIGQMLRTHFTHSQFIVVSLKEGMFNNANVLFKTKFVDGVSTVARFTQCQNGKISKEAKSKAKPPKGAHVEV
# UniProt O95219: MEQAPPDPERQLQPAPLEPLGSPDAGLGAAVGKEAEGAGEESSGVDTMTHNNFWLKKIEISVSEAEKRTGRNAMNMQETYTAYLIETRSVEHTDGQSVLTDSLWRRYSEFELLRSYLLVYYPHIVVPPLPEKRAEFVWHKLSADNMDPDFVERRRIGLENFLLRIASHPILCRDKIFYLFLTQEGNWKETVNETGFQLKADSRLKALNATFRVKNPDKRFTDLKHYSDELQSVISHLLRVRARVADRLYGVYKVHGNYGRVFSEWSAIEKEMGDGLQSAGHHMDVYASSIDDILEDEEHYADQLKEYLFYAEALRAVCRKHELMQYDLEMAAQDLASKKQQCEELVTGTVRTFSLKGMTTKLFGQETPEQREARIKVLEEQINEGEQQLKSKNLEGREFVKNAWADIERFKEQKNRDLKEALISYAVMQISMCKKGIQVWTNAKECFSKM
# UniProt O76080: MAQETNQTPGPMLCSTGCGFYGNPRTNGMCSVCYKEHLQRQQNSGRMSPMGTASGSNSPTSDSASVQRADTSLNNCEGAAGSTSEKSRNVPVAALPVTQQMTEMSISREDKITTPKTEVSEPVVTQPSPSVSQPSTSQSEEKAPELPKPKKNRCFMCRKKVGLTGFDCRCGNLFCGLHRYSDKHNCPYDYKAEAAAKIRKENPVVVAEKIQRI
# Compound: Nc1nc2c(ncn2[C@@H]2O[C@H](COP(=O)(O)OP(=O)(O)OP(=O)(O)O)[C@@H](O)[C@H]2O)c(=O)[nH]1 [guanosine triphosphate]
# Assay: NP40-soluble protein abundance relative to vehicle (solubility fold change) (ratio); higher = more soluble protein in presence of GTP
# Summary of the method: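 Eight concentrations, 0.1 to 10 mM, were tested on Jurkat crude lysate for 10 min at room temperature and then 3 min at 37 °C, in three independent experiments. The lysate was solubilised with 0.8% NP40 and benzonase, ultracentrifuged, and the supernatant TMT-labelled for LC-MS/MS. Each value is the fold change against the detergent-processed vehicle in its own replicate, from vsn-normalised intensities.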
Target,NP40-soluble protein abundance (concentration: 0.1mM),NP40-soluble protein abundance (concentration: 0.5mM),NP40-soluble protein abundance (concentration: 1mM),NP40-soluble protein abundance (concentration: 2mM),NP40-soluble protein abundance (concentration: 4mM),NP40-soluble protein abundance (concentration: 6mM),NP40-soluble protein abundance (concentration: 8mM),NP40-soluble protein abundance (concentration: 10mM)
DDAH2 (UniProt O95865),0.963 ± 0.06,0.944 ± 0.063,0.928 ± 0.058,0.881 ± 0.1,0.859 ± 0.09,0.877 ± 0.1,0.874 ± 0.085,0.85 ± 0.076
UniProt O95251 and related entries,1.02 ± 0.073,1.02 ± 0.092,1.13 ± 0.078,1.01 ± 0.088,1.01 ± 0.11,1.08 ± 0.12,1.06 ± 0.18,1.09 ± 0.18
UniProt O95613 and related entries,0.988 ± 0.063,0.945 ± 0.051,1.02 ± 0.065,0.988 ± 0.082,1.03 ± 0.039,1 ± 0.029,1.04 ± 0.032,1.01 ± 0.04
STAMBP (UniProt O95630),0.987 ± 0.01,0.953 ± 0.019,0.956 ± 0.062,0.884 ± 0.068,0.876 ± 0.088,0.878 ± 0.052,0.878 ± 0.083,0.802 ± 0.065
UniProt O95475,0.977 ± 0.052,1.02 ± 0.083,1.05 ± 0.023,1.01 ± 0.043,1.05 ± 0.065,1.03 ± 0.061,1.05 ± 0.054,1.11 ± 0.093
UniProt O75323,0.994 ± 0.02,1.03 ± 0.037,0.972 ± 0.039,0.943 ± 0.053,0.929 ± 0.074,0.94 ± 0.052,0.943 ± 0.035,0.9 ± 0.066
PAK4 (UniProt O96013),1.02 ± 0.05,1.01 ± 0.091,0.995 ± 0.097,0.967 ± 0.082,0.945 ± 0.041,0.954 ± 0.088,1.01 ± 0.05,0.983 ± 0.071
RNASEH2A (UniProt O75792),0.933 ± 0.04,0.951 ± 0.039,0.907 ± 0.051,0.878 ± 0.013,0.852 ± 0.024,0.884 ± 0.055,0.863 ± 0.047,0.845 ± 0.025
GOT2 (UniProt P00505),1 ± 0.018,1.01 ± 0.048,0.916 ± 0.026,0.906 ± 0.03,0.885 ± 0.019,0.886 ± 0.0084,0.853 ± 0.05,0.835 ± 0.051
UniProt P06576 and related entries,0.981 ± 0.023,1.02 ± 0.028,1.05 ± 0.025,1.04 ± 0.029,1.04 ± 0.035,1.06 ± 0.038,1.06 ± 0.074,1.05 ± 0.067
UniProt O96019 and related entries,1.02 ± 0.033,1.05 ± 0.036,1.05 ± 0.049,1.09 ± 0.085,1.09 ± 0.09,1.11 ± 0.11,1.1 ± 0.071,1.06 ± 0.079
UniProt O75312 and related entries,0.97 ± 0.032,0.931 ± 0.058,0.966 ± 0.044,0.924 ± 0.085,0.932 ± 0.063,0.895 ± 0.062,0.919 ± 0.048,0.912 ± 0.037
UniProt O95544 and related entries,0.98 ± 0.048,0.986 ± 0.054,0.92 ± 0.054,0.855 ± 0.1,0.819 ± 0.14,0.936 ± 0.06,0.863 ± 0.04,0.811 ± 0.089
SEMA7A (UniProt O75326),0.993 ± 0.023,0.955 ± 0.072,0.996 ± 0.076,1 ± 0.14,0.978 ± 0.1,1.03 ± 0.091,1.03 ± 0.057,1 ± 0.072
UniProt P04035 and related entries,1.05 ± 0.043,1.06 ± 0.087,0.937 ± 0.15,1.08 ± 0.2,1.03 ± 0.11,1.042 ± 0.0053,1 ± 0.074,0.891 ± 0.11
RB1 (UniProt P06400),0.964 ± 0.053,0.933 ± 0.059,0.924 ± 0.053,0.889 ± 0.05,0.915 ± 0.063,0.871 ± 0.059,0.9 ± 0.09,0.869 ± 0.059
UniProt P00387 and related entries,1.11 ± 0.13,1.1 ± 0.14,0.945 ± 0.11,0.947 ± 0.15,0.938 ± 0.14,0.925 ± 0.14,0.882 ± 0.1,0.853 ± 0.14
UniProt P06239 and related entries,1.013 ± 0.0087,1.04 ± 0.034,0.994 ± 0.022,1 ± 0.032,1 ± 0.023,0.963 ± 0.015,0.929 ± 0.026,0.919 ± 0.039
SNAP29 (UniProt O95721),1 ± 0.042,0.962 ± 0.07,1.02 ± 0.012,0.959 ± 0.059,0.933 ± 0.078,0.979 ± 0.12,1.08 ± 0.063,1.07 ± 0.078
UniProt P01737,0.932 ± 0.031,0.933 ± 0.0095,0.947 ± 0.026,0.946 ± 0.062,0.921 ± 0.08,0.936 ± 0.053,0.939 ± 0.031,0.943 ± 0.074
UniProt O95831 and related entries,0.9864 ± 0.0082,1.01 ± 0.021,0.937 ± 0.014,0.949 ± 0.016,0.93 ± 0.02,0.926 ± 0.016,0.894 ± 0.036,0.882 ± 0.05
DNAJC13 (UniProt O75165),1.04 ± 0.025,1.025 ± 0.007,1.06 ± 0.19,1.0266 ± 0.00091,1.02 ± 0.042,1.15 ± 0.14,1.23 ± 0.12,1.1 ± 0.032
RBBP9 (UniProt O75884),1.02 ± 0.072,0.941 ± 0.061,0.951 ± 0.054,0.89 ± 0.083,0.855 ± 0.068,0.872 ± 0.12,0.87 ± 0.05,0.84 ± 0.13
UniProt O75787 and related entries,1.05 ± 0.028,1.06 ± 0.038,0.988 ± 0.029,1.06 ± 0.054,1.05 ± 0.033,0.974 ± 0.038,1.02 ± 0.036,1.02 ± 0.014
UniProt P04921 and related entries,0.828 ± 0.084,0.79 ± 0.094,0.901 ± 0.074,0.887 ± 0.032,0.917 ± 0.04,0.857 ± 0.072,0.744 ± 0.1,0.881 ± 0.031
SMC2 (UniProt O95347),0.985 ± 0.023,1.01 ± 0.022,0.987 ± 0.027,0.983 ± 0.035,0.993 ± 0.041,1.01 ± 0.042,1.01 ± 0.072,0.977 ± 0.046
SNX4 (UniProt O95219),1.03 ± 0.0014,1 ± 0.054,1.01 ± 0.067,1.07 ± 0.072,1.04 ± 0.062,0.957 ± 0.082,0.983 ± 0.086,0.9 ± 0.052
UniProt P06127,0.938 ± 0.051,0.932 ± 0.052,0.968 ± 0.038,0.937 ± 0.049,0.939 ± 0.048,0.959 ± 0.063,0.963 ± 0.063,1.01 ± 0.042
WDR1 (UniProt O75083),0.976 ± 0.011,0.996 ± 0.045,0.895 ± 0.01,0.892 ± 0.031,0.881 ± 0.017,0.9 ± 0.02,0.869 ± 0.046,0.834 ± 0.059
ZFAND5 (UniProt O76080),0.941 ± 0.063,0.8558 ± 0.0072,0.979 ± 0.051,0.983 ± 0.049,0.979 ± 0.086,0.999 ± 0.079,1.11 ± 0.056,1.064 ± 0.0088

# A different layout for some results above:
Target | NP40-soluble protein abundance (concentration: 0.1mM) | NP40-soluble protein abundance (concentration: 0.5mM) | NP40-soluble protein abundance (concentration: 1mM) | NP40-soluble protein abundance (concentration: 2mM) | NP40-soluble protein abundance (concentration: 4mM) | NP40-soluble protein abundance (concentration: 6mM) | NP40-soluble protein abundance (concentration: 8mM) | NP40-soluble protein abundance (concentration: 10mM)
UniProt O95831 and related entries | 0.9864 ± 0.0082 | 1.01 ± 0.021 | 0.937 ± 0.014 | 0.949 ± 0.016 | 0.93 ± 0.02 | 0.926 ± 0.016 | 0.894 ± 0.036 | 0.882 ± 0.05
DNAJC13 (UniProt O75165) | 1.04 ± 0.025 | 1.025 ± 0.007 | 1.06 ± 0.19 | 1.0266 ± 0.00091 | 1.02 ± 0.042 | 1.15 ± 0.14 | 1.23 ± 0.12 | 1.1 ± 0.032
